# Among all 320,000 compounds or so, about 620 (0.19%) were called active. The shares of active, inactive and inconclusive entries below differ from those in the screen. No stated cut-off is given here; in the data, active means activation above about 80%; inconclusive means between about 30% and that limit; inactive means weaker than that.
# Sequences of proteins named here, by UniProt entry; tags and fusion partners are left off.
# UniProt Q8NER1, whole entry, looked up: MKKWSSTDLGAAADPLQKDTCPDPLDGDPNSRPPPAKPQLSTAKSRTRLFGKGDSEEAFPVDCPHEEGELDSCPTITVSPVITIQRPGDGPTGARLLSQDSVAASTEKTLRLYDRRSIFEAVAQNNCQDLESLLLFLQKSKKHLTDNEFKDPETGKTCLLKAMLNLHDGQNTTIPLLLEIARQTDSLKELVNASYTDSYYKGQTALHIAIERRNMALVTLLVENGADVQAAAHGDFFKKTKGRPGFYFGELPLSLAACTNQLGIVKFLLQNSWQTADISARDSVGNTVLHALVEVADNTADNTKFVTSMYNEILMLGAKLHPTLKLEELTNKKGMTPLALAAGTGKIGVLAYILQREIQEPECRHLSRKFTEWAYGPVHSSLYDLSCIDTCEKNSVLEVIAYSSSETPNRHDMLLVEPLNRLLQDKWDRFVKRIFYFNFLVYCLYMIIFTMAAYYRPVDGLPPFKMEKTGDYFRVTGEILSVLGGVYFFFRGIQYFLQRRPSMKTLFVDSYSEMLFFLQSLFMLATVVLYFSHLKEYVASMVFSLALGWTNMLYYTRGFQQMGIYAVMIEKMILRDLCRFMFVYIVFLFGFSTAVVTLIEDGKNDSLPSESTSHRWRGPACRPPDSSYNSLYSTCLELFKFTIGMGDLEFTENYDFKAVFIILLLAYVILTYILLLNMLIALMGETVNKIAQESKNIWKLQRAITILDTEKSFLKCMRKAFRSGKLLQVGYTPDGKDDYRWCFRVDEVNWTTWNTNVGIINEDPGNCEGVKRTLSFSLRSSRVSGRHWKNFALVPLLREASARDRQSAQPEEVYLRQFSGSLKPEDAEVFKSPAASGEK
# Molecular target: Transient receptor potential cation channel subfamily V member 1 (Homo sapiens) (UniProt Q8NER1)
# Assay: HTS Assay for Compounds that Act as Agonists of the Vanilloid Receptor 1; further: 0% is about no effect
# Settings: TRPV1-expressing cells, Fluo-8 calcium influx, agonist mode; at 8.33 µM, stronger effect = higher value
# In short: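 Fluo-8 calcium influx in TRPV1-expressing cells, kinetic read (ex 480/em 520 nm). Compound added and read 3 min for agonist activity, followed by capsaicin at EC20 final and 2 min further read for enhancement.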
row,SMILES,activation
1,CC(=O)COc1nc2c(c(-c3ccco3)c1C#N)CCc1ccccc1-2,inactive: 20%
2,COC(=O)c1ccc(C(=O)N2CCCC(Nc3ccc(C(C)C)cc3)C2)nc1 (stereo unspecified),active: 82.8%
3,Cc1ccc(Nc2nc(OC(C(F)(F)F)C(F)(F)F)nc(N3CCOCC3)n2)cc1,inconclusive: 56.1%
4,CCCN1CCN(C(=O)c2oc3c(Cl)cccc3c2C)CC1,inactive: 13.1%
5,COc1ccccc1OCCCC(=O)Nc1ccc2c(c1)OCCO2,inconclusive: 32.5%
6,COc1ccc(CNC(=S)NC(C)CCc2ccccc2)cc1 (stereo unspecified),inconclusive: 73.5%
7,Cc1ccc(NC(=O)C2OCCc3ccccc32)cc1C (stereo unspecified),inconclusive: 36.3%
8,Cc1ccc(NC(=O)c2cc3ccccc3o2)cc1S(=O)(=O)N(C)C,inconclusive: 60.4%
9,Oc1ccc(Cl)cc1N=Nc1ccccc1,inactive: 5.14%
10,Cc1cnc(=O)[nH]c1SCC(=O)c1ccc(F)cc1,inactive: -1.31%
11,FC(F)Sc1ccc(NC(=S)NCc2ccccc2)cc1,inconclusive: 43.9%
12,COc1cc(C2C3C(=O)N(Cc4ccccc4)C(=O)C3ON2c2ccccc2)cc(OC)c1OC (stereo unspecified),inconclusive: 41.7%
13,CC(=O)Nc1cccc(Oc2nc(-c3ccccn3)nc3ccccc23)c1,inconclusive: 52.9%
14,O=C(Nc1cc(Cl)ccc1Cl)C1CC(=O)N(c2ccc(Br)cc2)C1 (stereo unspecified),inconclusive: 45.4%
15,COc1ccccc1COC(=O)C(NC(=O)c1ccc(C)cc1)C(C)C (stereo unspecified),inconclusive: 30%
16,O=C(Nc1cccc(F)c1)Nc1cccc(Cl)c1,inconclusive: 31.7%
17,S=c1[nH]nc(Cn2c(-c3ccccn3)nc3ccccc32)n1-c1ccc2c(c1)OCCO2,inactive: -0.271%
18,Nc1ccc2c(c1)OCCOCCOCCOCCOCCO2,inactive: -5.04%
19,O=C1CC(Nc2ccc3ccccc3c2)C(=O)N1Cc1ccccc1 (stereo unspecified),inconclusive: 37.1%
20,Cc1cccc(/C=C(\C#N)C(=O)Nc2ccccn2)c1,inactive: 5.55%
21,O=C(c1cc2cc(F)ccc2[nH]1)N1CCCC(Nc2ccc(F)cc2)C1 (stereo unspecified),inconclusive: 48.7%
22,O=C(CN1CCN(c2ccccc2F)CC1)NCc1ccc(Cl)cc1,inconclusive: 58.2%
23,COc1ccc(NS(=O)(=O)c2cc(NC(=O)COc3ccccc3F)ccc2OC)cc1,inactive: 0.255%
24,CCCCC(=O)N1CCN(c2nc(-c3ccc(F)cc3)cs2)CC1,inconclusive: 36.8%
25,COc1ccc(NC2CCCN(C(=O)c3csc(C(C)C)n3)C2)cc1 (stereo unspecified),inconclusive: 57.8%
26,OCCCNc1nc(-c2ccc(Cl)cc2)nc2ccccc12,inconclusive: 45.4%

# Quoted from the listing.
# For activation, OCCCNc1nc(-c2ccc(Cl)cc2)nc2ccccc12 has inconclusive: 45.4%
# For activation, COc1cc(C2C3C(=O)N(Cc4ccccc4)C(=O)C3ON2c2ccccc2)cc(OC)c1OC (stereo unspecified) has inconclusive: 41.7%

# Reference: PubChem BioAssay AID540275 (National Center for Advancing Translational Sciences (NCATS), 2011)
